# Measured values reported in PubChem BioAssay (Tox21).
# Protein sequences, listed by entry. Tags and fused reporters are not part of them. Lines headed by an entry give the natural chain unless they say otherwise; changes in a name come on top.
# UniProt P28223, whole entry, looked up: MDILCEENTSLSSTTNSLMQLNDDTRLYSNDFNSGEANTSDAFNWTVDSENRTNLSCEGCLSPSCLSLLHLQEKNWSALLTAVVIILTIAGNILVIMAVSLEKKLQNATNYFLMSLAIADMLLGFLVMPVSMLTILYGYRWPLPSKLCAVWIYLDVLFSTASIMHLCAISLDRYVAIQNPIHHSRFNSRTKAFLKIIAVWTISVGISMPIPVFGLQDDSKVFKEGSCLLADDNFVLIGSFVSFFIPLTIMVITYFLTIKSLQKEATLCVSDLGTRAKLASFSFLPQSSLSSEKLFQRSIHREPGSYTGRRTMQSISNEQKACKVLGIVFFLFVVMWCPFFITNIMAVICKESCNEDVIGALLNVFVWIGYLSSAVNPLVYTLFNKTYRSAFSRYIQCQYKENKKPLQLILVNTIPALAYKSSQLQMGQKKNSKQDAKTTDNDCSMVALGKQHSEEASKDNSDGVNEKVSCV
# UniProt P14416, whole entry, looked up: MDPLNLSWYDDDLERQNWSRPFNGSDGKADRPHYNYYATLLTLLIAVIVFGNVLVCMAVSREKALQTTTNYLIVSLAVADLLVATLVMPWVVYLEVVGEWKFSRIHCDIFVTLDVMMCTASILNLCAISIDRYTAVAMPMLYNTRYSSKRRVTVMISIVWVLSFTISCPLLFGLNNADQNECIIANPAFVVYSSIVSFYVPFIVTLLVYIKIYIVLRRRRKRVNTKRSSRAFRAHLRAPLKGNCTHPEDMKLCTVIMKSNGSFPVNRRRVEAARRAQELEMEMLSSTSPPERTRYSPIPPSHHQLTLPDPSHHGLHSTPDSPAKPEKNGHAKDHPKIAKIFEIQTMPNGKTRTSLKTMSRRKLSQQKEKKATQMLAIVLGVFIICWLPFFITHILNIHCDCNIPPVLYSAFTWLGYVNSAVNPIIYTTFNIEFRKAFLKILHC
# UniProt P11229: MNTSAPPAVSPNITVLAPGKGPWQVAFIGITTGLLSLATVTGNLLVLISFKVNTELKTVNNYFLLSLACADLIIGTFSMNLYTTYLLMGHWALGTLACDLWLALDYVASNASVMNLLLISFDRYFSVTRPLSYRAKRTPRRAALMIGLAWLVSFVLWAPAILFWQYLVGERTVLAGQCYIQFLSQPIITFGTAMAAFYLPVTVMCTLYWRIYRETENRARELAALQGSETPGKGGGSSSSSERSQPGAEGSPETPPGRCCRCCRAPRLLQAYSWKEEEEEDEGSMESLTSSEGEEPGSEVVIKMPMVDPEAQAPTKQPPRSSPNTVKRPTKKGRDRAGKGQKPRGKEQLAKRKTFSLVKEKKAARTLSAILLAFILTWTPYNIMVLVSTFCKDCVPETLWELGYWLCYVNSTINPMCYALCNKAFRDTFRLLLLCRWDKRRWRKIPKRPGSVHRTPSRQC
# Where “and” joins values, the source holds several entries; their conditions need not be identical. Equal values may be shown once. The shares of active, inactive and inconclusive entries below differ from those in the screen. For some assays here: A potency beside an inconclusive call is a rough fit, not a confirmed value. A structure can be active in one record and inactive in another. Calls of active or inactive are those of the source. Unless noted, the call rests on the fitted dose curve.
# Legend:
# [1] = target: 5-hydroxytryptamine receptor 2A (Homo sapiens) (UniProt P28223); test: 5-hydroxytryptamine receptor 2A (HTR2A) small molecule antagonists, cell-based qHTS assay (AID 1963586); conditions: HTR2A-CHO cells, DOI-induced calcium flux, fluorescence; series mostly up to 61.5 µM; further: potency means the concentration at half of the fitted maximal effect; nearly all actives have a fitted effect of over 45% in size
# How it was run: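 Antagonist-mode intracellular calcium assay: DOI (4 nM) added after 5 min compound pre-incubation at room temperature to dye-loaded HTR2A-CHO cells. Fluorescence followed for 3 min, sampled every second.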
# [2] = p53 small molecule agonists, cell-based qHTS assay (AID 1963582; active means well fitted activation curve with a large enough effect in the signal ratio in the repeat runs, not every such curve was filed as active; inconclusive means weak or mixed curves; the % refers to the signal ratio; further: potency means the concentration at half of the fitted maximal effect); conditions: HCT-116 p53RE-bla reporter, beta-lactamase FRET ratio, 16 h; activation: at 66 µM (top of the series) unless noted
# How it was run: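 Agonist activity was scored from beta-lactamase FRET fluorescence in p53RE-bla cells treated 16 h at 37 C with compounds in DMSO, substrate incubation being 2 h at room temperature.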
# [3] = target: Beta-2 adrenergic receptor (Homo sapiens) (UniProt P07550); test: Adrenergic beta2 receptor (ADRB2) small molecule agonists, cell-based qHTS assay (AID 1963593); conditions: CHO-ADRB2 cells, cAMP HTRF, 30 min; further: potency means the concentration at half of the fitted maximal effect;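 on activation: CHO cells stably overexpressing human ADRB2; on the % scale 0 is the no-effect control and ±100 the full control effect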
# How it was run: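 CHO cells stably over-expressing ADRB2 were plated overnight at 37C, then dosed with compounds plus a stimulation mix containing 100uM IBMX and 25uM Ro-20-1724 for 0.5hr at room temperature. cAMP was measured by HTRF competition, 1hr.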
# [4] = target: D(2) dopamine receptor (Homo sapiens) (UniProt P14416); test: Dopamine D2 receptor (DRD2) small molecule agonists, cell-based qHTS assay (AID 1963594); conditions: HEK293-DRD2 cAMP HTRF, agonist mode, 30 min; activation: at 92.4 µM (top of the series) unless noted; further: nearly all actives have a fitted effect of over 35% in size; further: potency means the concentration at half of the fitted maximal effect; on activation: on the % scale 0 is the no-effect control and ±100 the full control effect
# How it was run: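 HEK293 cells stably expressing DRD2 were cultured 24 h at 37 C, then given Ro20-1724 (0.1 mM final) and compounds for 10 min at room temperature. NKH477 (200nM) was then added for 30 min. cAMP was read by HTRF.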
# [5] = cAMP Responsive Elements (CRE) small molecule antagonists, cell-based qHTS assay (AID 1963591; active means well fitted inhibition curve with a large enough effect in the signal ratio in the repeat runs, not every such curve was filed as active; inconclusive means weak or mixed curves, or effect the other way; the % refers to the signal ratio; further: on the % scale 0 is the no-effect control and ±100 the full control effect); conditions: CRE-bla HEK293T, beta-lactamase FRET ratio; activity change, negative = inhibition: at 92.4 µM (top of the series) unless noted
# How it was run: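 qHTS in CRE-bla HEK 293T cells: compound in DMSO, then 0.25 uM NKH477 (final), 3 h at 37 °C/5% CO2; beta-lactamase FRET read-out after 2 h substrate incubation.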
# [6] = target: Beta-2 adrenergic receptor (Homo sapiens) (UniProt P07550); test: Adrenergic beta2 receptor (ADRB2) small molecule antagonists, cell-based qHTS assay (AID 1963592); conditions: CHO-ADRB2 cells, isoproterenol-stimulated cAMP HTRF ratio, 0.5 h; activity change, negative = inhibition: at 92.4 µM (top of the series) unless noted; further: nearly all actives have a fitted effect of over 50% in size; further: potency means the concentration at half of the fitted maximal effect
# How it was run: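 Cells (CHO, stable ADRB2 overexpression) incubated 18-20hr at 37C; compounds added from DMSO; agonist mix (1nM isoproterenol, 100uM IBMX, 25uM Ro-20-1724) added; 0.5hr RT; d2-cAMP and anti-cAMP-cryptate added; 1hr RT; 665/615 nm read.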
# [7] = target: 5-hydroxytryptamine receptor 2A (Homo sapiens) (UniProt P28223); test: 5-hydroxytryptamine receptor 2A (HTR2A) small molecule agonists, cell-based qHTS assay (AID 1963587); conditions: HTR2A-CHO cells, calcium flux fluorescence, agonist mode; activation: at 76.8 µM (top of the series); further: potency means the concentration at half of the fitted maximal effect; nearly all actives have a fitted effect of over 30% in size
# How it was run: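 HTR2A-CHO cells, plated 18 h at 37 C/5% CO2, dye-loaded 1 h at 37 C; compounds in DMSO added by pin tool (agonist mode). Intracellular calcium flux read as kinetic fluorescence on FDSS over 2 min at 1 s intervals.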
# [8] = target: Muscarinic acetylcholine receptor M1 (Homo sapiens) (UniProt P11229); test: Cholinergic receptor muscarinic 1 (CHRM1) small molecule antagonists, cell-based qHTS assay (AID 1963588); conditions: CHRM1-CHO antagonist mode, calcium flux fluorescence; series mostly up to 61.5 µM; further: potency means the concentration at half of the fitted maximal effect; nearly all actives have a fitted effect of over 40% in size
# How it was run: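 CHRM1-CHO calcium-flux assay, antagonist mode. Cells were seeded 18 h, dye-loaded 1 h at 37 C and given compound for 5 min at RT, then acetylcholine was added at 50nM. FDSS fluorescence was read 3 min; 15 concentrations, three runs.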
# [9] = cAMP Responsive Elements (CRE) small molecule agonists, cell-based qHTS assay (AID 1963590); conditions: CRE-bla HEK293T, beta-lactamase FRET ratio, 3 h; activation: at 92.4 µM (top of the series) unless noted; further: on the % scale 0 is the no-effect control and ±100 the full control effect
# How it was run: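 FRET-based beta-lactamase readout (LiveBLAzer B/G, 2 h RT) quantified CRE activation in HEK 293T CRE-bla cells after 3 h treatment with DMSO-dissolved compounds.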
# [10] = activation: at 92.4 µM (top of the series) unless noted
structure (smiles),measurement,setting,value
COc1ccc(CO)cc1,Potency,[1],"inconclusive: 168 nM [inhibitor, partial curve, poor fit]"
c1ccc(N2CCNCC2)cc1,Potency,[1],active: 818 nM
CCOC(=O)CC(=O)CCl,Potency,[2],"inconclusive: 0.814 µM [rising, full curve]"
same,activation,[3]; [10],inconclusive: 16.4%
same,Potency,[4],inactive
COC(=O)c1cncn1C(C)c1ccccc1 (centres undefined),Potency,[2],inactive
same,Potency,[3]; [10],inactive
COc1cc(C=O)cc2c1[C@H](COC(N)=O)[C@]1(OC(C)=O)ON2C[C@H]2[C@@H]1N2C(C)=O,Potency,[2],active: 3.63 µM
same,"activity change, negative = inhibition",[5],inconclusive: -45.3%
same,Potency,[4],inactive
S=C1NCCN1,Potency,[2],inactive
same,Potency,[3]; [10],"inconclusive: 3.38 µM [inhibitor, partial curve, poor fit]"
same,activation,[3]; [10],inconclusive: -10.6%
Clc1ccc(C(Cl)(Cl)Cl)c(Cl)c1,Potency,[2],inactive
same,Potency,[3]; [10],inactive
COC[C@@H](NC(C)=O)C(=O)NCc1ccccc1,Potency,[2],inactive
same,Potency,[3]; [10],inactive
Cc1cccc(N=Nc2ccc(N(C)C)cc2)c1,Potency,[2],inactive
same,"activity change, negative = inhibition",[6],inconclusive: 21.3%
same,activation,[3]; [10],inconclusive: 8.42%
same,activation,[3]; at 92.4 µM (top of the series),inactive: 0.143%
Cc1cc(-c2cc(C)c(N)c(C)c2)cc(C)c1N,Potency,[1],"inconclusive: 18.8 µM [inhibitor, partial curve, poor fit] and inconclusive: 5.84 µM [inhibitor, full curve, poor fit]"
same,Potency,[7],"inconclusive: 31 µM [activator, partial curve, poor fit]"
same,Potency,[8],active: 2.11 µM
same,activation,[9],inconclusive: 21.8%
same,"activity change, negative = inhibition",[5],inconclusive: 34.6%
same,Potency,[6],"inconclusive: 54.6 µM [falling, partial curve, poor fit] and inconclusive: 47.7 µM [falling, partial curve, poor fit]"
CCN(Cc1ccc(Cl)nc1)/C(=C/[N+](=O)[O-])NC,Potency,[2],inactive
same,activation,[3]; [10],inconclusive: 11.5% [at 42.5 µM]
COC(=O)NS(=O)(=O)c1ccc(N)cc1,Potency,[2],inactive
same,Potency,[4],"inconclusive: 68.6 µM [rising, single point]"
CC(O)CN1CCN(CC(=O)[O-])CCN(CC(=O)[O-])CCN(CC(=O)[O-])CC1.[Gd+3] (centres undefined),Potency,[2],inactive
same,Potency,[3]; [10],inactive
O=C(NC(=O)c1c(F)cccc1F)Nc1cc(Cl)c(OC(F)(F)C(F)F)c(Cl)c1,Potency,[2],inactive
same,activation,[3]; [10],inconclusive: 9.15%
Cc1nc2ccccc2c(=O)n1-c1ccccc1Cl,Potency,[2],"inconclusive: 0.564 µM [falling, single point]"
same,activation,[3]; [10],inconclusive: 8.03%
C=CC(=O)OCC(CC)CCCC (centres undefined),activation,[2],inconclusive: 4.09%
same,activation,[3]; [10],inconclusive: 16%
CS(=O)(=O)Cl,Potency,[2],inactive
same,Potency,[5],inactive
same,Potency,[3]; [10],"inconclusive: 0.249 µM [inhibitor, single point]"
CN1C(=O)CN=C(c2ccccc2)c2cc([N+](=O)[O-])ccc21,Potency,[2],inactive
same,Potency,[3]; [10],inactive

# An excerpt of these results, tab-delimited.
structure (smiles)	measurement	setting	value
O=C(NC(=O)c1c(F)cccc1F)Nc1cc(Cl)c(OC(F)(F)C(F)F)c(Cl)c1	Potency	[2]	inactive
same	activation	[3]; [10]	inconclusive: 9.15%
Cc1nc2ccccc2c(=O)n1-c1ccccc1Cl	Potency	[2]	inconclusive: 0.564 µM [falling, single point]
